This passage reports activity change, negative = inhibition results from PubChem BioAssay AID2567 (National Center for Advancing Translational Sciences (NCATS), 2010).

The chains behind the UniProt entries cited, without tags or fusion partners. Where a name states a change or a piece, a line headed by the entry shows the natural chain unless it says otherwise.
UniProt Q6W5P4: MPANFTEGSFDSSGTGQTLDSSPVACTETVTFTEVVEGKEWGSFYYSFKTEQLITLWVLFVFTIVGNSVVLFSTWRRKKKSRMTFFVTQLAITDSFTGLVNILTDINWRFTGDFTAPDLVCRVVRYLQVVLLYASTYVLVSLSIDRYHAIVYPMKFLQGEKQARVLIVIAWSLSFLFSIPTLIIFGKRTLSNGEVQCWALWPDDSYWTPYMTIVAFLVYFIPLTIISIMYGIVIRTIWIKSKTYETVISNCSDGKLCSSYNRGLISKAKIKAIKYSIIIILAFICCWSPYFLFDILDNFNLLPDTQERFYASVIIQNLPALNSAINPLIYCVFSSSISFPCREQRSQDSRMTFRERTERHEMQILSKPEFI

What follows is the remainder of the data, with few or none of the hits. Inconclusive results are not listed. Activity calls are given as the source filed them. Calls come from the whole dose curve; as a rule, active = well fitted antagonist curve with a large enough effect in the main read-out, with a control signal flat; inconclusive = small, poorly fitted or top-dose-only effect; inactive = no such curve, though single readings can be large or run the other way.

The experiment addresses Neuropeptide S receptor (Homo sapiens) (UniProt Q6W5P4). Kind of experiment: Confirmation Concentration-Response Assay for Antagonists of the Neuropeptide S Receptor: Calcium Signal Transduction, SAR for Probe. The following applies: CHO-NPSR cells, NPS-induced calcium fluorescence, FDSS; at 19.3 µM (top of the series). The source says:
NIH Chemical Genomics Center [NCGC] NIH Molecular Libraries Probe Production centers Network [MLPCN] MLPCN Grant: X01-DA026210-01 Assay Submitter (PI): Heilig, Markus Alexander NCGC Assay Overview: Neuropeptide S receptor (NPSR), previously known as GPR154, is a recently de-orphanized G protein coupled receptor. Its endogenous ligand is the 20 amino acids peptide Neuropeptide S (NPS). […] NPS and its receptor are found in various tissues. Specifically they are highly expressed in brain areas that have been implicated in modulation of arousal, stress and anxiety. […] This change in intracellular calcium can be detected using a calcium indicator dye on a calcium imaging plate reader system (FDSS).
NCGC Assay Protocol Summary: A Chinese hamster ovary (CHO) cell line stably expressing the NPS receptor (CHO-NPSR) was obtained from Dr. Heilig lab at NIAAA and maintained in F-12 Kaighn's media (Invitrogen, Carlsbad, CA, 21127) supplemented with 10 % FBS, 100 units/ml penicillin, 100 ug/ml streptomycin and 250 ug/ml geneticin at 37C, 5% CO2 in a humidified atmosphere. […] The assay was performed on a FDSS-7000 kinetic plate reader in 1536-well format. For both agonist (1-220s) and antagonist (221-400s) phases, the maximums of kinetic fluorescence responses were converted separately into text files using the instrument's software data export utility. […]

`CN(C)c1ccc2nc3ccc(=[N+](C)C)cc-3sc2c1`: the activity change, negative = inhibition was inactive: 7.9%.
